Residue numbers refer to the chain shown, from its start. The list shows a part of the results. For part of these data: At the low end of the ranking the order means little. For part of these data: The exact form of the protein is not confirmed.
Experiments:
Settings in all cases: yeast three-hybrid, YBZ-1, SC-Leu-His + 0.5 mM 3-AT, 4 days
[1] = biological target: T1, PUM1 PUF domain R5-PHQ R6-SWD C1007P + R1008H + N1043S + Y1044W + Q1047D (UniProt Q14671)
T1 sequence: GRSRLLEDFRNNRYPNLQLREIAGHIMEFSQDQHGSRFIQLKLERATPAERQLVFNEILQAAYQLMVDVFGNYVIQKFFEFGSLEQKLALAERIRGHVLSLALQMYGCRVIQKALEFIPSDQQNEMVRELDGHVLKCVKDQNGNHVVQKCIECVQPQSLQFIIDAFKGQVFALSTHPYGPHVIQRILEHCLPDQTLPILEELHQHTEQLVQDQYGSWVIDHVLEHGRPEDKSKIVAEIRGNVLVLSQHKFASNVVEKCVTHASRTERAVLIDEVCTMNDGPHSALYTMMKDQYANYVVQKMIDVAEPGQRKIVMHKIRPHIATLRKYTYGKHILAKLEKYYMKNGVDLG

[2] = biological target: T2, PUM1 PUF domain R3-THE R4-TFR R7-NPG C935T + R936H + Q939E + N971T + H972F + Q975R + S1079N + N1080P + E1083G (UniProt Q14671)
T2 sequence: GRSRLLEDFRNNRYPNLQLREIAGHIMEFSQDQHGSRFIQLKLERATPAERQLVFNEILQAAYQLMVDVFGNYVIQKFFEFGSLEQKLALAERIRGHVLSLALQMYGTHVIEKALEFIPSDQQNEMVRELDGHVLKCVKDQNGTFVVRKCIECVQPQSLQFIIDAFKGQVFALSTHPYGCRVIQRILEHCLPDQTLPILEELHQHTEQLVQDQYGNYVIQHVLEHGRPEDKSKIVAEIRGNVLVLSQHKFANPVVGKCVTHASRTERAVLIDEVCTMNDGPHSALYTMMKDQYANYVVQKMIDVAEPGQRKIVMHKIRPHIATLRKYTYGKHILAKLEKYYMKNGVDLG

[3] = biological target: T3, PUM1 PUF domain R6-SWD R7-NPG N1043S + Y1044W + Q1047D + S1079N + N1080P + E1083G (Homo sapiens) (UniProt Q14671)
T3 sequence: T1 sequence with P180C, H181R, S252N, N253P, E256G

Sequence “GGCUAGAACUAGUGGAUCCCCCGGCGCCCGGCGGCUCGAGCCCGGGUAAGCGUAAGAAGUCUGCAUGCCGCCGGGCGCCAUGCCUGCAGGUCGACUCUAGAAAACAUG” has a binding signal (log2 enrichment (interaction score)) [1] of -8.59.
Sequence “GGCUAGAACUAGUGGAUCCCCCGGCGCCCGGCGGCUCGAGCCCGGGUAAGCCGGAAGAGUCUGCAUGCCGCCGGGCGCCAUGCCUGCAGGUCGACUCUAGAAAACAUG” has a binding signal (log2 enrichment (interaction score)) [1] of less than -7.85.
For “GGCUAGAACUAGUGGAUCCCCCGGCGCCCGGCGGCUCGAGCCCGGGUAAGCAUAAACUGUCUGCAUGCCGCCGGGCGCCAUGCCUGCAGGUCGACUCUAGAAAACAUG”, the binding signal (log2 enrichment (interaction score)) [1] was -8.33.
For “GGCUAGAACUAGUGGAUCCCCCGGCGCCCGGCGGCUCGAGCCCGGGUAAGUUGACUUCGUCUGCAUGCCGCCGGGCGCCAUGCCUGCAGGUCGACUCUAGAAAACAUG”, the binding signal (log2 enrichment (interaction score)) [1] was less than -7.39.
Sequence “GGCUAGAACUAGUGGAUCCCCCGGCGCCCGGCGGCUCGAGCCCGGGUAAGCUAAAAAAGUCUGCAUGCCGCCGGGCGCCAUGCCUGCAGGUCGACUCUAGAAAACAUG” has a binding signal (log2 enrichment (interaction score)) [1] of less than -7.33.
Sequence “GGCUAGAACUAGUGGAUCCCCCGGCGCCCGGCGGCUCGAGCCCGGGUAAGAUGUAGGAGUCUGCAUGCCGCCGGGCGCCAUGCCUGCAGGUCGACUCUAGAAAACAUG” has a binding signal (log2 enrichment (interaction score)) [1] of less than -7.77.
In the case of “GGCUAGAACUAGUGGAUCCCCCGGCGCCCGGCGGCUCGAGCCCGGGUAAGUUGGAAUGGUCUGCAUGCCGCCGGGCGCCAUGCCUGCAGGUCGACUCUAGAAAACAUG”, the binding signal (log2 enrichment (interaction score)) [1] is reported as less than -7.11.
With “GGCUAGAACUAGUGGAUCCCCCGGCGCCCGGCGGCUCGAGCCCGGGUAAGUUGAGAUAGUCUGCAUGCCGCCGGGCGCCAUGCCUGCAGGUCGACUCUAGAAAACAUG” the binding signal (log2 enrichment (interaction score)) [1] was less than -6.98.
For “GGCUAGAACUAGUGGAUCCCCCGGCGCCCGGCGGCUCGAGCCCGGGUAAGAUGGUGUUGUCUGCAUGCCGCCGGGCGCCAUGCCUGCAGGUCGACUCUAGAAAACAUG”, the binding signal (log2 enrichment (interaction score)) [2] was -2.09 and the binding signal (log2 enrichment (interaction score)) [3] was -0.6.
“GGCUAGAACUAGUGGAUCCCCCGGCGCCCGGCGGCUCGAGCCCGGGUAAGUGGACAAAGUCUGCAUGCCGCCGGGCGCCAUGCCUGCAGGUCGACUCUAGAAAACAUG” was tested, and the binding signal (log2 enrichment (interaction score)) [1] was -6.81.
In the case of “GGCUAGAACUAGUGGAUCCCCCGGCGCCCGGCGGCUCGAGCCCGGGUAAGUGAGAAAGGUCUGCAUGCCGCCGGGCGCCAUGCCUGCAGGUCGACUCUAGAAAACAUG”, the binding signal (log2 enrichment (interaction score)) [1] is reported as less than -7.06.

Source: PMC8384837
